Patent publication US20230158032A1, “PHARMACEUTICAL COMBINATION FOR THE TREATMENT OF MYELOPROLIFERATIVE NEOPLASMS” (Universitätsklinikum Jena, priority 2020, published 2023)
These are yes or no findings as the source states them, for the method shown. For some of these results: In cells and extracts the contact can be indirect. Some binding calls cover weakened binding; strength is not graded here.

Protein sequences, listed by entry. Tags and fused reporters are not part of them. Lines headed by an entry give the natural chain unless they say otherwise; changes in a name come on top. Residues count along the entry.
UniProt Q62120: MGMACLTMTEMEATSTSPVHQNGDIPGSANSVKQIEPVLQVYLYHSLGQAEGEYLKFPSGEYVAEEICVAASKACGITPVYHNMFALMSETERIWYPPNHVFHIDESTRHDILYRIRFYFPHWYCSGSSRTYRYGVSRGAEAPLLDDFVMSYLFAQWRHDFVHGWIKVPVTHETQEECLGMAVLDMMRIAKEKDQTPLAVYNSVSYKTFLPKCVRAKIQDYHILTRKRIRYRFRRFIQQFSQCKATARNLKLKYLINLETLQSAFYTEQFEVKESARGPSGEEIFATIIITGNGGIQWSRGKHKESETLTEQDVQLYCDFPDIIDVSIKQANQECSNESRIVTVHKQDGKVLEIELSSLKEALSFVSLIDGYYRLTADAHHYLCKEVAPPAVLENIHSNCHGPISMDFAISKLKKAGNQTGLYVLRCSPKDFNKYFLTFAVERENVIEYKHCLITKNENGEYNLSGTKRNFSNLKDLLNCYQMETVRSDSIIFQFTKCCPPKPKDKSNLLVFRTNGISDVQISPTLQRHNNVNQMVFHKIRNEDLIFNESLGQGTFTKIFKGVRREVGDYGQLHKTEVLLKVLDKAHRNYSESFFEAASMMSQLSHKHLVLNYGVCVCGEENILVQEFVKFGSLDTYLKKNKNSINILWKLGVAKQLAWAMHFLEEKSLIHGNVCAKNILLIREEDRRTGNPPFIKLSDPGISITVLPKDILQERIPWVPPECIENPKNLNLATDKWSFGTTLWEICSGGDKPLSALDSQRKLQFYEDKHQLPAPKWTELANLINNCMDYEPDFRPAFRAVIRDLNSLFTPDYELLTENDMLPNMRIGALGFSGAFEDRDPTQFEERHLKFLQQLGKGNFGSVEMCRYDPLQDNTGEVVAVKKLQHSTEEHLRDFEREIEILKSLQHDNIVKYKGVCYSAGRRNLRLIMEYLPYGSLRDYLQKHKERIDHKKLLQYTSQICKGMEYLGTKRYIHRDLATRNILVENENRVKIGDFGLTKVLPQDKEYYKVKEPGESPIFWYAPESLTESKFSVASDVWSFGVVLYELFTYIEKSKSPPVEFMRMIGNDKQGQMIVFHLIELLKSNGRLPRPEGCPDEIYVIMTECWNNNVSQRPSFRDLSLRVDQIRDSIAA
UniProt P63085, residues 2-358: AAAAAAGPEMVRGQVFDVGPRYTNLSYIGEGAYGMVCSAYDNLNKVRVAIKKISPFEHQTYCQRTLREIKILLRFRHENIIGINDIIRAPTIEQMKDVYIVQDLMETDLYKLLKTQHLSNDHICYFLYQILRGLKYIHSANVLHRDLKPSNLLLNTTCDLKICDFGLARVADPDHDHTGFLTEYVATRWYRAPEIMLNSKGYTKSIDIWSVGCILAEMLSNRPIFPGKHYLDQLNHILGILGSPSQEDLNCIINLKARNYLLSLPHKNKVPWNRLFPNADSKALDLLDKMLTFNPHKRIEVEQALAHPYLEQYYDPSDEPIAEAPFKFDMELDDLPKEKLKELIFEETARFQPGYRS
UniProt P62960, residues 2-322: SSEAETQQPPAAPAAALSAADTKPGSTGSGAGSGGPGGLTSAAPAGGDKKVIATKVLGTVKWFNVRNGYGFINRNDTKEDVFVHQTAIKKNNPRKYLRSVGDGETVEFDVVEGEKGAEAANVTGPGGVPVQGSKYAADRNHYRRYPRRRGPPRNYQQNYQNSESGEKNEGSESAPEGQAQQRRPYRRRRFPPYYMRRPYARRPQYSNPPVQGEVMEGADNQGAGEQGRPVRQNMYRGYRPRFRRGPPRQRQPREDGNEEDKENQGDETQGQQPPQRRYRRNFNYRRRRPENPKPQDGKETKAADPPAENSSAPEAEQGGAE

How the values were obtained:
[1] = target: Jak2V617F (mutated Jak2 kinase) expressed in murine Ba/F3 cells (murine) (UniProt Q62120); experiment: immunoprecipitation of Jak2 from murine Jak2V617F cells, western blot
[2] = target: Mapk1, murine, endogenous in Ba/F3 Jak2V617F cells (murine) (UniProt P63085); experiment: Ybx1 affinity purification with quantitative interaction proteomics; Ybx1 immunoprecipitation and western blot with ERK1/2 antibody
[3] = target: Mapk1, murine, endogenous in Ba/F3 Jak2V617F cells (murine) (UniProt P63085); experiment: Ybx1 immunoprecipitation / interactome in Jak2V617F cells
[4] = target: Jak2V617F (mutated Jak2 kinase) expressed in murine Ba/F3 cells (murine) (UniProt Q62120); experiment: co-immunoprecipitation and immunofluorescence co-localization in Jak2V617F cells

Measured: binding

Y-box binding protein 1 (Ybx1), murine, endogenous in Ba/F3 Jak2V617F cells (from UniProt P62960 2-322)
binds: all assays above
